No constants are given. Whether binding was seen depends on the method and setting. Some binding calls cover weakened binding; strength is not graded here.
T1: Interleukin-10 (IL-10) receptor on the J774 cell line (UniProt Q61727)
T1 sequence (looked up): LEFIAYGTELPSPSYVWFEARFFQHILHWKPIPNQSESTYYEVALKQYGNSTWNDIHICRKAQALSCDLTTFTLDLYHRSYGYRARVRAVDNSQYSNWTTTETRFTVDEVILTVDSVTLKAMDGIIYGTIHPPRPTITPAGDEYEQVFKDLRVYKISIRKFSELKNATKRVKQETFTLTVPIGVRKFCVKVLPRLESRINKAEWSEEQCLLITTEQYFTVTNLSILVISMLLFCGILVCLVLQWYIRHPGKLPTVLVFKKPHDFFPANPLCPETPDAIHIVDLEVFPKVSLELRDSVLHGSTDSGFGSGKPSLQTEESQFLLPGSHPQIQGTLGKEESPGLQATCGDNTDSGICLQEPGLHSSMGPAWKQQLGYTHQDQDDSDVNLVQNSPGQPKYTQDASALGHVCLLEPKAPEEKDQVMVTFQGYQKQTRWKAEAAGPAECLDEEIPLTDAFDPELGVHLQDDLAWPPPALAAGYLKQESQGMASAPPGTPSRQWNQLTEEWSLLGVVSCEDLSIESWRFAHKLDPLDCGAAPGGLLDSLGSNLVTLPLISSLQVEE


molecular target: T1, Interleukin-10 (IL-10) receptor on the J774 cell line; assay: phage display selection on J774 cells, three rounds, competitive elution with rIL-10

Row | binding | Binder
1 | binds | HASSAVIKSSSGGGS [Peptide 2 (Pep 2)]
2 | binds | HCMTGSRATFPSAPGGGS [Peptide 4 (Pep 4)]
3 | binds | HCFDTQRMEFRMPPGGGS [Peptide 3 (Pep 3)]
4 | binds | HACSAVIKSSCGGGS (disulfide bridge (Cys at positions 3 and 11, replacing the Ser of Pep 2)) [Peptide 1 (Pep 1)]

Source: patent US20220204577A1, “Synthetic Peptides With Affinity for the Interleukin-10 Receptor, Pharmaceutical Composition and Use Thereof as Immunomodulators for Treating Autoimmune, Inflammatory or Allergic Diseases” (Universidade Federal de Uberlândia, priority 2019, published 2022)
